Some targets named below: Flag-β-catenin (UniProt P35222); Myc-TCF4 (UniProt Q9NQB0); Flag-FOXP3 (human) (UniProt Q9BZS1); Myc-FOXP3 (human) (UniProt Q9BZS1).
Holding throughout (test): co-IP; HEK-293T cells co-transfected with the indicated plasmids; nuclear protein extracts incubated with anti-FLAG M2 or anti-c-Myc magnetic beads at 4 °C overnight, washed with TBS, eluted, western blot; in Fig. 6c with or without co-expressed FOXP3
(A western blot detects proteins with antibodies after separation by electrophoresis.)

Chains of the proteins cited; added tags and fusions are not shown. Lines headed by an entry give the natural chain unless they say otherwise; changes in a name come on top. Residues count along the entry.
UniProt P35222: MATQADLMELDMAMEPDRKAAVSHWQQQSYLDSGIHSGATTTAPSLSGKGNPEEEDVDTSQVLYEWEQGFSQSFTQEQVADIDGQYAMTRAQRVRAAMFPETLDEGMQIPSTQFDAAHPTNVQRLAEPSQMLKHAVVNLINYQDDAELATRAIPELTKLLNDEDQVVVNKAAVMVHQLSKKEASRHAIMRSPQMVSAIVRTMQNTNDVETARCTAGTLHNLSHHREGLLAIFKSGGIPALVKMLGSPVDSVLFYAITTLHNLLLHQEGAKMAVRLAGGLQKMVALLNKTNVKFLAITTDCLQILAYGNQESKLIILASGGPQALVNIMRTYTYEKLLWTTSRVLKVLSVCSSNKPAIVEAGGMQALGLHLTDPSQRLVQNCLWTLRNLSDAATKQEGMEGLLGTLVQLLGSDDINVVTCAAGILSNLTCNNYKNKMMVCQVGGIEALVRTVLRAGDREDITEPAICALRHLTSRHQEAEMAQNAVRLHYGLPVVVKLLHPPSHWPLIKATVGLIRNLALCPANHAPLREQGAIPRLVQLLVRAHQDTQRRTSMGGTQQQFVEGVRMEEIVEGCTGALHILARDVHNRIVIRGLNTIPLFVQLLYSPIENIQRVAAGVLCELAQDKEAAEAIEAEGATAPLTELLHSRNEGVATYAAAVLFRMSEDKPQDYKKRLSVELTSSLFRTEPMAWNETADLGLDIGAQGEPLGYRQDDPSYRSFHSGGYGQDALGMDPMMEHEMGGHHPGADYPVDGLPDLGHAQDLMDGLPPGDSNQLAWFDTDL
UniProt Q9NQB0: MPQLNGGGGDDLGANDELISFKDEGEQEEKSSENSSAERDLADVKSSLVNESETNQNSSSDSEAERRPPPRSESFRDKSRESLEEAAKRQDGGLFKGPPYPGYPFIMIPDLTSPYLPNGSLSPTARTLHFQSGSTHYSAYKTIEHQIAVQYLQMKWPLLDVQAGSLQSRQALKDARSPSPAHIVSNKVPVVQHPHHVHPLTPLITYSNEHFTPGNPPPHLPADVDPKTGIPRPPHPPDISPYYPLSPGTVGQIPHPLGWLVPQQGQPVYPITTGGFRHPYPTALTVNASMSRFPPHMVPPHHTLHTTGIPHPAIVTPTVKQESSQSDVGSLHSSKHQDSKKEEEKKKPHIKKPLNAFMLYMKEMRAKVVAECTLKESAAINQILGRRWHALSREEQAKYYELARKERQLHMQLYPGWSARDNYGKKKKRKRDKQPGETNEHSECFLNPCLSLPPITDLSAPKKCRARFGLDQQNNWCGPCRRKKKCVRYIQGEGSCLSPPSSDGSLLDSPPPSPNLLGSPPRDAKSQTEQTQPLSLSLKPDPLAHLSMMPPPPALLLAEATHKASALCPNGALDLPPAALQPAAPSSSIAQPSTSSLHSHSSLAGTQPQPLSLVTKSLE
UniProt Q9BZS1, residues 1-417: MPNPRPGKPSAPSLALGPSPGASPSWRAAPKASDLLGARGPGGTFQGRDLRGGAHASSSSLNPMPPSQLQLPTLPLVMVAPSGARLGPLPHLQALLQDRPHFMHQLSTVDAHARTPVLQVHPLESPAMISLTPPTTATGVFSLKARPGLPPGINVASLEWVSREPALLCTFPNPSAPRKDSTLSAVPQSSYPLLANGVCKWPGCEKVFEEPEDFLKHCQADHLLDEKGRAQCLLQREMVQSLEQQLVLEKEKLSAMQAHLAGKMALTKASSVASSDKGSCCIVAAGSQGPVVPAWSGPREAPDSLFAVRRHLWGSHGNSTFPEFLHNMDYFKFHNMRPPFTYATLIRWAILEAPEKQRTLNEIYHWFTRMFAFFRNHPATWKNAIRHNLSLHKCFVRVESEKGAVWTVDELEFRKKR

Results are given in words; binding and its absence hold for the method and conditions named. Binding seen in cells or lysates may run through a third protein. Some binding calls cover weakened binding; strength is not graded here.

On to FOXP3 (from UniProt Q9BZS1-1 1-417), for which the binding result with Flag-β-catenin and with Myc-TCF4 was “binds” each time.
In the case of TCF4 (from UniProt Q9NQB0 1-619), in the assay with Flag-FOXP3 (human), the binding result is recorded as “binds”.
β-catenin (from UniProt P35222 1-781): the binding result with Myc-FOXP3 (human) is on record as “binds”.

These data come from publication PMC5514503.
